Assay results reported in the supplement of paper PMC8728848.
This is one part of the list.

Columns and labels:
Experiment in all cases: glycan array binding signal (z-score within array); higher = stronger binding
Settings in all cases: glycan notation: IUPAC condensed, linker removed
Neu5Ac(a2-6)Gal(b1-4)Glc = biological target: Neu5Ac(a2-6)Gal(b1-4)Glc
In short: (§1)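 Glycan array binding is given as a within-array Z-score, which can be read as non-binding when negative. The arrays, 3228 of them, came from the Consortium for Functional Glycomics database and were retained only where the protein sequence was available. Z-scores were averaged across arrays of the same protein sequence at different concentrations or buffers and across linkers.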

[1] = biological target: Neu5Ac(a2-6)Gal(b1-4)GlcNAc
In short: as §1

[2] = biological target: Neu5Ac(a2-6)Gal(b1-4)GlcNAc(b1-2)Man
In short: as §1

[3] = biological target: Neu5Ac(a2-6)Gal(b1-4)GlcNAc(b1-2)Man(a1-3)Man(b1-4)GlcNAc(b1-4)GlcNAc
In short: as §1

[4] = biological target: Neu5Ac(a2-6)Gal(b1-4)GlcNAc(b1-2)Man(a1-3)[Gal(b1-4)GlcNAc(b1-2)Man(a1-6)]Man(b1-4)GlcNAc(b1-4)GlcNAc
In short: as §1

[5] = biological target: Neu5Ac(a2-6)Gal(b1-4)GlcNAc(b1-2)Man(a1-3)[GlcNAc(b1-2)Man(a1-6)]Man(b1-4)GlcNAc(b1-4)GlcNAc
In short: as §1

[6] = biological target: Neu5Ac(a2-6)Gal(b1-4)GlcNAc(b1-2)Man(a1-3)[GlcNAc(b1-4)][Neu5Ac(a2-6)Gal(b1-4)GlcNAc(b1-2)Man(a1-6)]Man(b1-4)GlcNAc(b1-4)GlcNAc
In short: as §1

[7] = biological target: Neu5Ac(a2-6)Gal(b1-4)GlcNAc(b1-2)Man(a1-3)[Man(a1-6)]Man(b1-4)GlcNAc(b1-4)GlcNAc
In short: as §1

[8] = biological target: Neu5Ac(a2-6)Gal(b1-4)GlcNAc(b1-2)Man(a1-3)[Neu5Ac(a2-3)Gal(b1-4)GlcNAc(b1-2)Man(a1-6)]Man(b1-4)GlcNAc(b1-4)GlcNAc
In short: as §1

[9] = biological target: Neu5Ac(a2-6)Gal(b1-4)GlcNAc(b1-2)Man(a1-3)[Neu5Ac(a2-6)Gal(b1-4)GlcNAc(b1-2)Man(a1-6)]Man(b1-4)GlcNAc(b1-4)GlcNAc
In short: as §1

[10] = biological target: Neu5Ac(a2-6)Gal(b1-4)GlcNAc(b1-2)Man(a1-3)[Neu5Ac(a2-6)Gal(b1-4)GlcNAc(b1-2)Man(a1-6)]Man(b1-4)GlcNAc(b1-4)[Fuc(a1-6)]GlcNAc
In short: as §1

[11] = biological target: Neu5Ac(a2-6)Gal(b1-4)GlcNAc(b1-2)Man(a1-6)Man(b1-4)GlcNAc(b1-4)GlcNAc
In short: as §1

[12] = biological target: Neu5Ac(a2-6)Gal(b1-4)GlcNAc(b1-2)Man(a1-6)[Gal(b1-4)GlcNAc(b1-2)Man(a1-3)]Man(b1-4)GlcNAc(b1-4)GlcNAc
In short: as §1

[13] = biological target: Neu5Ac(a2-6)Gal(b1-4)GlcNAc(b1-2)Man(a1-6)[GlcNAc(b1-2)Man(a1-3)]Man(b1-4)GlcNAc(b1-4)GlcNAc
In short: as §1

[14] = biological target: Neu5Ac(a2-6)Gal(b1-4)GlcNAc(b1-2)Man(a1-6)[Man(a1-3)]Man(b1-4)GlcNAc(b1-4)GlcNAc
In short: as §1

[15] = biological target: Neu5Ac(a2-6)Gal(b1-4)GlcNAc(b1-2)[Neu5Ac(a2-6)Gal(b1-4)GlcNAc(b1-4)]Man(a1-3)[GlcNAc(b1-4)][Neu5Ac(a2-6)Gal(b1-4)GlcNAc(b1-2)[Neu5Ac(a2-6)Gal(b1-4)GlcNAc(b1-6)]Man(a1-6)]Man(b1-4)GlcNAc(b1-4)GlcNAc
In short: as §1

[16] = biological target: Neu5Ac(a2-6)Gal(b1-4)GlcNAc(b1-2)[Neu5Ac(a2-6)Gal(b1-4)GlcNAc(b1-4)]Man(a1-3)[GlcNAc(b1-4)][Neu5Ac(a2-6)Gal(b1-4)GlcNAc(b1-4)Man(a1-6)]Man(b1-4)GlcNAc(b1-4)GlcNAc
In short: as §1

[17] = biological target: Neu5Ac(a2-6)Gal(b1-4)GlcNAc(b1-2)[Neu5Ac(a2-6)Gal(b1-4)GlcNAc(b1-6)]Man(a1-6)[Neu5Ac(a2-6)Gal(b1-4)GlcNAc(b1-2)Man(a1-3)][GlcNAc(b1-4)]Man(b1-4)GlcNAc(b1-4)GlcNAc
In short: as §1

[18] = biological target: Neu5Ac(a2-6)Gal(b1-4)GlcNAc(b1-3)Gal(b1-3)GlcNAc
In short: as §1

[19] = biological target: Neu5Ac(a2-6)Gal(b1-4)GlcNAc(b1-3)Gal(b1-4)GlcNAc
In short: as §1

[20] = biological target: Neu5Ac(a2-6)Gal(b1-4)GlcNAc(b1-3)Gal(b1-4)GlcNAc(b1-2)Man(a1-3)[Neu5Ac(a2-6)Gal(b1-4)GlcNAc(b1-3)Gal(b1-4)GlcNAc(b1-2)Man(a1-6)]GalNAc
In short: as §1

[21] = biological target: Neu5Ac(a2-6)Gal(b1-4)GlcNAc(b1-3)Gal(b1-4)GlcNAc(b1-3)Gal(b1-4)GlcNAc
In short: as §1

[22] = biological target: Neu5Ac(a2-6)Gal(b1-4)GlcNAc(b1-3)Gal(b1-4)GlcNAc(b1-3)Gal(b1-4)GlcNAc(b1-2)Man(a1-3)[Neu5Ac(a2-6)Gal(b1-4)GlcNAc(b1-3)Gal(b1-4)GlcNAc(b1-3)Gal(b1-4)GlcNAc(b1-2)Man(a1-6)]GalNAc
In short: as §1

B1: B936 (Bifidobacterium sp) (protein)
chain: MKNWKKAIALVASAAALVSVAACGPSNAGGSSDSGKKTVGFVAVGPEGGFRTANEKDIQKAFEDAGFDLTYSPTQNNDQQKQIQAFNKFVNDEVDAIILSSTEDSGWDDSLKKAAEAEIPVFTVDRNVDVKDAEAKKAIVAHIGPSNVWCGEQAAEFVNKNFPDGANGFILEGPAGLSVVKDRGTGWGNKVASNVKVLESQSANWSTDEAKTVTAGLLDKYKSDNPQFIFAQNDEMGLGAAQAVDAAGLKGKVKIITIDGTKNALQALVDGDLSYVIEYNPIFGKETAQAVKDYLDGKTVEKDIEIESKTFDAASAKEALDNNTRAY
- glycan array binding signal (z-score) (Neu5Ac(a2-6)Gal(b1-4)Glc): -0.726
- glycan array binding signal (z-score) [1]: -0.479
- glycan array binding signal (z-score) [2]: -0.408
- glycan array binding signal (z-score) [3]: -0.09
- glycan array binding signal (z-score) [4]: -0.265
- glycan array binding signal (z-score) [5]: -0.546
- glycan array binding signal (z-score) [6]: -0.397
- glycan array binding signal (z-score) [7]: -0.024
- glycan array binding signal (z-score) [8]: -0.482
- glycan array binding signal (z-score) [9]: -0.289
- glycan array binding signal (z-score) [10]: 0.231
- glycan array binding signal (z-score) [11]: 0.197
- glycan array binding signal (z-score) [12]: -0.37
- glycan array binding signal (z-score) [13]: -0.837
- glycan array binding signal (z-score) [14]: -0.38
- glycan array binding signal (z-score) [15]: -0.539
- glycan array binding signal (z-score) [16]: 1.12
- glycan array binding signal (z-score) [17]: -0.739
- glycan array binding signal (z-score) [18]: -0.036
- glycan array binding signal (z-score) [19]: -0.116
- glycan array binding signal (z-score) [20]: 0.592
- glycan array binding signal (z-score) [21]: -0.561
- glycan array binding signal (z-score) [22]: 0.845
